Measurements reported in paper PMC8501799, “Constitutive signal bias mediated by the human GHRHR splice variant 1” (Proceedings of the National Academy of Sciences of the …, 2021).
Residue numbers refer to the chain shown, from its start. No constants are given. Whether binding was seen depends on the method and setting. In cells and extracts the contact can be indirect. Some binding calls cover weakened binding; strength is not graded here.

The chains behind the UniProt entries cited, without tags or fusion partners.
UniProt P49407: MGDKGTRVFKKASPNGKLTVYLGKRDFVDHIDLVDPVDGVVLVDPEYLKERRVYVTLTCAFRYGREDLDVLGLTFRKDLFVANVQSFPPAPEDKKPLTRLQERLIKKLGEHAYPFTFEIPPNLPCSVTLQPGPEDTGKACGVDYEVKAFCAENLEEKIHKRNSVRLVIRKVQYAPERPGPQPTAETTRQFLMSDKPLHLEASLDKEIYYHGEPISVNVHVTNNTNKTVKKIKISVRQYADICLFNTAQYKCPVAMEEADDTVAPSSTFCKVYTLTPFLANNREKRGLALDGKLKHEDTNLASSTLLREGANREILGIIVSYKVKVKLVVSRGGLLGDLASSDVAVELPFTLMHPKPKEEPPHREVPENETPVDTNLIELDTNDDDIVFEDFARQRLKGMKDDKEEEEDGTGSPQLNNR

What was measured:
[1] = target: T1, GHRHR L62A (human) (UniProt Q02643); assay: FRET or BRET; β-arrestin 1/2 recruitment assay in live HEK293T cells co-transfected with receptor-Rluc8 and β-arrestin 1/2-Venus (1:9 mass ratio); coelenterazine h; started with 250 μM GHRH; AUC of the BRET time course (535 nm/470 nm) normalised to WT GHRHR = 100%
T1 sequence: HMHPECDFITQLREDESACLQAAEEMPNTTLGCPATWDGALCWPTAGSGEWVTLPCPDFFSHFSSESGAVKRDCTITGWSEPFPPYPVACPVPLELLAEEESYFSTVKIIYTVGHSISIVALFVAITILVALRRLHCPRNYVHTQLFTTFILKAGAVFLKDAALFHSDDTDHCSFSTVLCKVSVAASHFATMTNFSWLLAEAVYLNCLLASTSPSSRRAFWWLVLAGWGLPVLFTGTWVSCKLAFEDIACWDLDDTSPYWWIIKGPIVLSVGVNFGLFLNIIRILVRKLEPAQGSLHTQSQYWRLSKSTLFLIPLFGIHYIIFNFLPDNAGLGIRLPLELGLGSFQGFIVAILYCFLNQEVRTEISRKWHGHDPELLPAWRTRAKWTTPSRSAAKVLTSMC

[2] = target: T2, GHRHR with all four ECD residues L34, L62, F82 and F85 substituted with alanine (human) (UniProt Q02643); assay: as above
T2 sequence: T1 sequence with L12A, F60A, F63A

binding [1]: binds
binding [2]: binds
Substance: β-arrestin 1-Venus (from UniProt P49407 1-418)
